Test results taken from PubChem BioAssay AID2685 (National Center for Advancing Translational Sciences (NCATS), 2010).
The list shows a part of the results. Shown are side measurements of this screen, not its main read-out; they come without a call. Compounds called inactive in the main read-out are mostly missing here. Words in brackets tell the shape of the fitted curve; partial curves, single points and poor fits give uncertain potencies.

Experiment: qHTS Assay for Lipid Storage Modulators in Drosophila S3 Cells;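 on cell number change: cells counted by Cell Tracker Red CMTPX staining in the red channel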
Settings: BODIPY lipid droplet fluorescence, 18-24 h; for cell number change: measured here: cell count max response, cells fed with added oleic acid
Method in brief: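 Laser-scanning cytometry quantifies lipid droplet accumulation (500–530 nm total intensity; droplet/cell object ratio) in oleic acid-fed (400 uM added) Drosophila S3 cells treated with a concentration series. 20 uM Triacsin C defined 100% inhibition.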

[1] = measured here: cell number channel AC50, cells fed with added oleic acid
[2] = measured here: lipid fluorescence (Fed channel) AC50, cells fed with added oleic acid

For `CNS(=O)(=O)c1cccc(C(=O)NNC(=O)c2ccc(COc3ccccc3)cc2)c1`, the cell number change was 22.1%, the AC50 [1] was 0.461 µM [rising, full curve, poor fit] and the AC50 [2] was 11.6 µM [rising, single point].
With `CCc1nn(CC(=O)N2CCC(C(N)=O)CC2)c(=O)c2cc3occc3n12` the cell number change was -12.1% and the AC50 [2] was 6.51 µM [rising, single point].
In the case of `CSCC[C@H](NC(=O)[C@@H]1Cc2ccccc2CN1)C(=O)NC1CCCCC1`, the AC50 [1] is reported as 0.517 µM [falling, full curve, poor fit].
In the case of `COc1ccc(NC(=O)CN2CCC(C(N)=O)(N3CCCCC3)CC2)c(OC)c1`, the cell number change is reported as 2.45% and the AC50 [2] is reported as 6.51 µM [falling, single point].
In the case of `COc1ccc(C(=O)NCc2cccc(Cl)c2)cc1S(=O)(=O)N1CCOCC1`, the cell number change is reported as 0.0627% and the AC50 [2] is reported as 0.13 µM [rising, full curve, poor fit].
With `C[n+]1cccc2c(Br)ccc([O-])c21` the cell number change was -24%.
For `COc1ccc(COC(=O)C2CCN(C(=O)c3ccc(Cl)cc3)CC2)cc1F`, the cell number change was -58.6%, the AC50 [1] was 29.1 µM [falling, partial curve, poor fit] and the AC50 [2] was 0.731 µM [falling, full curve].
For `CC(C)CNC(=O)CN(C1CCCCC1)S(C)(=O)=O`, the cell number change was 7.77%, the AC50 [1] was 6.51 µM [falling, single point] and the AC50 [2] was 0.651 µM [falling, full curve].
For `CCOc1cc(/C=N/n2cnnc2)c(Br)cc1O`, the cell number change was -31.3%, the AC50 [1] was 32.6 µM [falling, single point] and the AC50 [2] was 0.82 µM [falling, single point].
In the case of `CCCCCCCCNc1ncnc2ccccc12`, the cell number change is reported as -77.7% and the AC50 [1] is reported as 0.651 µM [falling, full curve].
For `Cc1ccc2c3c(cccc13)-c1ccccc1C2=O`, the cell number change was 11.4% and the AC50 [2] was 6.51 µM [rising, partial curve].
With `COc1ccc(CN(C)C(=O)Cc2ccc(OC)c(S(=O)(=O)N3CCOCC3)c2)cc1OC` the cell number change was -21.4% and the AC50 [2] was 0.13 µM [falling, full curve, poor fit].
With `O=C(CSc1cccc[n+]1[O-])Nc1cc2c(cc1Cl)C(=O)c1ccccc1C2=O` the AC50 [2] was 1.46 µM [rising, partial curve].
`O=C(O)c1ccc(-n2nnnc2SCc2ccccc2Br)cc1` showed a cell number change of 4.96%.
For `CC(C)C(=O)Nc1cccc(C(=O)Nc2ccc3c(c2)OCO3)c1`, the cell number change was 28.9%, the AC50 [1] was 0.058 µM [rising, full curve] and the AC50 [2] was 0.0366 µM [rising, full curve, poor fit].
For `C=CCN(C(=O)CC(NC(C)=O)c1ccccc1)c1nc(-c2ccc(S(C)(=O)=O)cc2)cs1` (stereo not given), the cell number change was -43.7%, the AC50 [1] was 8.2 µM [falling, partial curve, poor fit] and the AC50 [2] was 0.58 µM [rising, single point].
With `Cc1cc(Sc2ncnc(N)c2[N+](=O)[O-])ncn1` the cell number change was -38.2%, the AC50 [1] was 0.116 µM [falling, full curve, poor fit] and the AC50 [2] was 29.1 µM [falling, single point].
For `O=C(NCC1CCCO1)C(=O)NCC1CCCN1S(=O)(=O)c1ccccc1` (stereo not given), the cell number change was -2.45% and the AC50 [2] was 0.164 µM [falling, full curve].
In the case of `Cc1cc(C)c2cc(CN(CCO)C(=O)NC3CCCCC3)c(=O)[nH]c2c1`, the cell number change is reported as 11.2% and the AC50 [2] is reported as 3.66 µM [rising, single point].
For `O=C(O)c1ccc(Nc2nc3ccc(Cl)cc3[nH]2)cc1`, the cell number change was 32.3% and the AC50 [1] was 29.1 µM [rising, single point].
For `O=C(CCc1nc(-c2ccccc2)no1)NC1CCCCC1`, the cell number change was 51.9%, the AC50 [1] was 16.4 µM [rising, partial curve] and the AC50 [2] was 23.1 µM [rising, partial curve].
For `Cc1ccc(C(=O)NCC(=O)OCC(=O)NC2CCS(=O)(=O)C2)cc1C` (stereo not given), the cell number change was 13.9% and the AC50 [1] was 0.731 µM [falling, single point].
In the case of `O=C(CN1CC(=O)Oc2ccccc21)OCC(=O)c1cccc(Br)c1`, the cell number change is reported as 16.5% and the AC50 [2] is reported as 5.8 µM [rising, partial curve, poor fit].
For `CC(=O)Nc1ccc(S(=O)(=O)NCCC(=O)N2CCN(C(c3ccccc3)c3ccccc3)CC2)cc1`, the cell number change was 39.9%, the AC50 [1] was 8.2 µM [rising, partial curve, poor fit] and the AC50 [2] was 20.6 µM [rising, single point].
For `C/C(=N\NC(=O)c1ccccc1C)c1ccc(N2CCOCC2)cc1`, the cell number change was 33.2% and the AC50 [1] was 1.64 µM [rising, partial curve].
`Cc1cc([N+](=O)[O-])ccc1NC(=O)C(C)NC1CCCCC1` (stereo not given) gave a cell number change of -12.6%.
In the case of `O=[N+]([O-])c1ccccc1S(=O)(=O)Nc1ccc(-c2ccc(N3CCCC3)nn2)cc1`, the AC50 [2] is reported as 0.92 µM [rising, partial curve].
In the case of `C=C(C)C1CC=C(C)/C(=N\NC(=O)CNc2ccccc2OC)C1` (stereo not given), the cell number change is reported as 14.3% and the AC50 [2] is reported as 0.259 µM [rising, full curve].
In the case of `COc1ccc2oc(C)c(C(=O)Cn3ccnc3)c2c1`, the AC50 [2] is reported as 0.58 µM [rising, single point].
For `CC1CCCN(C2=C(NS(=O)(=O)c3ccc(Cl)cc3)C(=O)c3ccccc3C2=O)C1` (stereo not given), the cell number change was -82.7%, the AC50 [1] was 5.8 µM [falling, full curve] and the AC50 [2] was 1.64 µM [falling, full curve].
In the case of `CCCN(C(=O)COc1ccc(C(C)=O)cc1OC)C1CCS(=O)(=O)C1` (stereo not given), the cell number change is reported as 0.518% and the AC50 [2] is reported as 2.59 µM [rising, single point].
`CCCCc1ccc(NC(=S)NCCN2CCOCC2)cc1` gave a cell number change of -52.5%.
In the case of `COCCN1C(=O)N[C@@H](c2cccc(F)c2)C(C(=O)OC)=C1C`, the cell number change is reported as 12.1% and the AC50 [2] is reported as 2.06 µM [falling, partial curve].
In the case of `CCN(CC(=O)NCc1cccs1)C(=O)c1cc(S(=O)(=O)N2CCCCC2)ccc1Cl`, the cell number change is reported as 4.73% and the AC50 [2] is reported as 20.6 µM [rising, single point].
With `CCOC(=O)c1cnc(-n2nc(C)cc2C)nc1NNc1ncc(-c2ccccc2)cn1` the cell number change was -27.5%, the AC50 [1] was 4.61 µM [falling, full curve, poor fit] and the AC50 [2] was 6.51 µM [falling, full curve].
For `CCC(C)N1CCN(S(=O)(=O)c2ccc(NC(C)=O)cc2)CC1` (stereo not given), the AC50 [2] was 0.146 µM [rising, single point].
For `O=c1[nH]c(SCc2ccc([N+](=O)[O-])cc2)nc2[nH]ncc12`, the cell number change was 0.656%.
For `COc1cccc2sc3ccc(NCCC4CCCN4C)cc3c(=O)c12` (stereo not given), the cell number change was -7.49%.
For `O=C(O)C1Nc2c(O)cc(Cl)c([N+](=O)[O-])c2C2C=CCC12` (stereo not given), the cell number change was -0.261% and the AC50 [2] was 0.58 µM [falling, single point].
In the case of `CCCN(CCC)S(=O)(=O)c1ccc(C(=O)Nc2ccc(S(=O)(=O)Nc3nnc(CC)s3)cc2)cc1`, the cell number change is reported as 22.5% and the AC50 [2] is reported as 1.84 µM [falling, partial curve].
With `c1ccc2c(Nc3nncs3)c3ccccc3nc2c1` the AC50 [2] was 16.4 µM [rising, partial curve, poor fit].
For `Cc1ccc(S(=O)(=O)Nc2ccccc2C(=O)N2CCCC2)cc1`, the cell number change was -6.74%.
In the case of `CC(C)c1ccc(NC(=S)N2CCN(C)CC2)cc1`, the cell number change is reported as 12.7%, the AC50 [1] is reported as 0.116 µM [rising, full curve, poor fit] and the AC50 [2] is reported as 29.1 µM [falling, single point].
Work on `Nc1nnc(SCC(=O)NC2CCCCCC2)s1` yielded a cell number change of -6.5%.
For `CC(=O)Nc1ccc(NC(=O)c2ccc(COc3ccc(C)cc3)o2)cc1`, the cell number change was 42.2% and the AC50 [1] was 29.1 µM [rising, single point].
Compound `O=C(CNC(=O)c1ccco1)NC1CCCCCC1` has a cell number change of -13.3%.
With `COc1cccc(CNC(=O)COC(=O)CCCNC(=O)c2ccc(Cl)cc2)c1` the cell number change was -6.64% and the AC50 [2] was 32.6 µM [falling, partial curve, poor fit].
For `COc1ccccc1N1CCN(C(=O)c2cc(-c3ccc(C)cc3)on2)CC1`, the cell number change was -14.1%.
For `CC1(C)CC(=O)C=C(NCCc2c[nH]c3ccccc23)C1`, the cell number change was 30.4% and the AC50 [2] was 29.1 µM [rising, single point].
In the case of `COc1cc(CNc2ccc(N3CCN(C(C)=O)CC3)cc2)ccc1OCc1ccc(F)cc1`, the cell number change is reported as -11.8% and the AC50 [1] is reported as 3.66 µM [falling, single point].
For `COc1ccc(C(=O)N[C@H](C(=O)NCc2ccc(C)cc2)C(C)C)cc1`, the cell number change was 23.9% and the AC50 [2] was 29.1 µM [falling, single point].
For `O=C(Nc1cccc(S(=O)(=O)Nc2ccc(Cl)cc2)c1)c1cc2c(s1)CCCC2`, the cell number change was -27.9% and the AC50 [2] was 32.6 µM [falling, single point].
For `O=C(O)c1ccc(NC2=C(Cl)C(=O)c3ccccc3C2=O)cc1`, the cell number change was -63.5%, the AC50 [1] was 23.1 µM [falling, partial curve] and the AC50 [2] was 5.17 µM [falling, partial curve, poor fit].
In the case of `CCOC(=O)[C@H]1[C@H]2COc3ccc(Cl)cc3[C@@H]2N2C(=O)CN(CC3CCCO3)C(=O)[C@@]12C` (stereo not given in full), the cell number change is reported as 10.5% and the AC50 [2] is reported as 0.82 µM [rising, single point].
In the case of `CCNC(=O)Cc1c(OC)ccc2cc(Br)ccc12`, the cell number change is reported as 12.2%.
In the case of `COc1ccc(S(N)(=O)=O)cc1C(=O)N1CCCC1`, the cell number change is reported as -46.3% and the AC50 [1] is reported as 29.1 µM [falling, single point].
For `O=C(NCCc1ccccc1)C1CCC(Cn2c(=O)c3ccccc3n(Cc3cccnc3)c2=O)CC1` (stereo not given), the cell number change was -7.37% and the AC50 [2] was 29.1 µM [rising, partial curve, poor fit].
With `Cc1cc(C)nc(N/N=C/c2ccc([N+](=O)[O-])o2)n1` the cell number change was -25.6% and the AC50 [2] was 23.1 µM [falling, partial curve].
With `Cc1[nH][nH]c(=O)c1C(c1ccc(-c2ccc(C(=O)O)cc2)o1)c1c(C)[nH][nH]c1=O` the cell number change was -17.6%, the AC50 [1] was 0.013 µM [falling, full curve, poor fit] and the AC50 [2] was 0.00651 µM [falling, full curve].
